Inconclusive means that the source gave no clear call. Potencies of inconclusive entries are doubtful fits and often do not repeat.
Target: human Serum/Glucocorticoid Regulated Kinase 1 (SGK1), SGK1 (gene 6446) (UniProt O00141)
Assay: NVS_ENZ_hSGK1: NovaScreen (NVS) Enzymatic Assay for human Serum/Glucocorticoid Regulated Kinase 1 (SGK1); active means hit-call score of the fitted dose curve at least 0.9, where 1 is the maximum; inconclusive means response in the unintended direction; inactive means score below 0.9
Description: NVS_ENZ_hSGK1 is a biochemical, single-readout assay that uses extracted gene-proteins in a cell-free assay. Measurements were taken 1 hour after chemical dosing in a 96-well plate.NVS_ENZ_hSGK1 is one of one assay component(s) measured or calculated from the NVS_ENZ_hSGK1 assay. It is designed to make measurements of enzyme activity, a form of enzyme reporter, as detected with fluorescence intensity signals by Fluorescence and electrophoretic mobility shift technology.Data from the assay component NVS_ENZ_hSGK1 was analyzed into 1 assay endpoint. This assay endpoint, NVS_ENZ_hSGK1, was analyzed in the positive analysis fitting direction relative to DMSO as the negative control and baseline of activity. Using a type of enzyme reporter, loss-of-signal activity can be used to understand changes in the enzymatic activity as they relate to the gene SGK1. Furthermore, this assay endpoint can be referred to as a primary readout, because this assay has produced […] where this one serves a enzymatic activity function. To generalize the intended target to other relatable targets, this assay endpoint is annotated to the kinase intended target family, where the subfamily is serine/threonine kinase. […]

Protein sequences, listed by entry. Tags and fused reporters are not part of them. Lines headed by an entry give the natural chain unless they say otherwise; changes in a name come on top.
UniProt O00141: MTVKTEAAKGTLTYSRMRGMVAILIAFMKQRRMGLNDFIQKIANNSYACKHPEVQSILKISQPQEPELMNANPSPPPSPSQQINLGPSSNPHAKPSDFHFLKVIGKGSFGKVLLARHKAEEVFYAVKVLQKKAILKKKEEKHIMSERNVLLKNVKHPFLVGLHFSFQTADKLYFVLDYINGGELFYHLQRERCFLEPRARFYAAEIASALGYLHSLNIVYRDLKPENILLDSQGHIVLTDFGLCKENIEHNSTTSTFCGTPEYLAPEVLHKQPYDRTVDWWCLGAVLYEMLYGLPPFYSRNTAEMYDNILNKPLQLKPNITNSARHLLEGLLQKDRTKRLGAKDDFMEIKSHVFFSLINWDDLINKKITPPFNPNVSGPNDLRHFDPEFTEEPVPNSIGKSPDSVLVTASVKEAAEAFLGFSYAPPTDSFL

Compound: CCCN(CCC)c1c([N+](=O)[O-])cc(C(F)(F)F)c(N)c1[N+](=O)[O-]
- AC50: inconclusive: 25 µM

Source: PubChem BioAssay AID2283220 (EPA ToxCast)
